Data: the supplement of paper PMC9549374
The list shows a part of the results. No stated cut-off is given here; in the data, active = 2-fold of DMSO or more and inactive = the rest. Single values of this set are uncertain. Some low values are a fixed figure set by the source, not a measured ratio.

What follows are compounds tested on CM7/1-hgem mouse ES cell-derived cardiomyocytes (assay: maximal number of mAG-hGem(1/110)-positive cardiomyocytes over 96 h, fold-change vs DMSO; higher = more cardiomyocyte cell cycle activity). Details: 1 µM; 96 (max over 12 h time points) h.

Q: Which maximal number does the source give for NC[C@H]1O[C@H](O[C@H]2[C@H](O)[C@@H](O[C@H]3O[C@H](CO)[C@@H](O)[C@H](N)[C@H]3O)[C@H](N)C[C@@H]2N)[C@H](N)[C@@H](O)[C@@H]1O here?
A: inactive: 1

Q: With NCc1ccccc1CC(=O)N[C@@H]1C(=O)N2C(C(=O)O)=C(CSc3nnnn3CC(=O)O)CS[C@H]12 as the compound, how does the maximal number read?
A: inactive: 1

Q: How did the maximal number turn out when CC1(C)CC[C@]2(C(=O)O)CC[C@]3(C)C(=CC[C@@H]4[C@@]5(C)CC[C@H](O)[C@@](C)(CO)[C@@H]5CC[C@]43C)[C@@H]2C1 was run?
A: inactive: 1

Q: For O=C1CCC(N2C(=O)c3ccccc3C2=O)C(=O)N1 (stereo not given), which maximal number is on record?
A: inactive: 1

Q: CO/N=C(\C(=O)N[C@@H]1C(=O)N2C(C(=O)O)=C(CSc3nnnn3C)CS[C@H]12)c1csc(N)n1 was tested. Which maximal number did it give?
A: inactive: 0.5

Q: Which maximal number does the source give for O=C(Cc1ccccc1)NO here?
A: inactive: 1

Q: O=C1C=C2CC3(O)COc4cc(O)ccc4C3=C2C=C1O (stereo not given) was tested. Which maximal number did it give?
A: inactive: 1

Q: With CC(=O)O[C@@H]1CC[C@@]2(C)C(C[C@@H](OC(C)=O)[C@@]3(C)C4=CC(=O)O[C@@H](c5ccoc5)[C@]4(C)CCC23)C1(C)C (stereo partly drawn) [3alpha-ACETOXYDIHYDRODEOXYGEDUNIN] as the compound, how does the maximal number read?
A: inactive: 1

Q: For COc1ccc(-c2ccc3cc(C(=O)O)ccc3c2)cc1C12CC3CC(CC(C3)C1)C2, which maximal number is on record?
A: inactive: 0

Q: How did the maximal number turn out when COc1cc2c(cc1OC)-c1cc3ccc(OC)c(OC)c3c[n+]1CC2 was run?
A: inactive: 0

Q: How did the maximal number turn out when COc1cc(-c2coc3cc(O)c(OC)c(O)c3c2=O)cc(O)c1OC was run?
A: inactive: 1

Q: For COc1ccc2c(c1)OCC(Cc1ccc(OC)c(OC)c1)C2=O (stereo not given), which maximal number is on record?
A: inactive: 1

Q: Which maximal number does the source give for CC(=O)N[C@@H](CCC(N)=O)C(=O)O here?
A: inactive: 1

Q: How did the maximal number turn out when COc1cc(O)c(C(C)=O)c(O)c1 was run?
A: inactive: 1

Q: With O=C(/C=C/C=C/c1ccc2c(c1)OCO2)N1CCCCC1 as the compound, how does the maximal number read?
A: inactive: 1

Q: Which maximal number does the source give for Cc1cc(O)cc(O)c1C(=O)O here?
A: inactive: 1

Q: Which maximal number does the source give for C[C@@H]1CN(c2c(F)c(N)c3c(=O)c(C(=O)O)cn(C4CC4)c3c2F)C[C@H](C)N1 here?
A: inactive: 1

Q: For CN(C)c1cc(NC(=O)CNC(C)(C)C)c(O)c2c1C[C@H]1C[C@H]3[C@H](N(C)C)C(O)=C(C(N)=O)C(=O)[C@@]3(O)C(O)=C1C2=O, which maximal number is on record?
A: inactive: 1

Q: With C[C@]12CC[C@@H](O)C[C@H]1CCc1ccccc12 [3alpha-HYDROXY-4,4-BISNOR-8,11,13-PODOCARPATRIENE] as the compound, how does the maximal number read?
A: inactive: 0

Q: For CC[C@H](C)C(=O)O[C@H]1CCC=C2C=C[C@H](C)[C@H](CC[C@@H]3C[C@@H](O)CC(=O)O3)[C@H]21, which maximal number is on record?
A: inactive: 1

Q: With O=C(O)C[C@H](O)C[C@H](O)/C=C/c1c(C2CC2)nc2ccccc2c1-c1ccc(F)cc1 as the compound, how does the maximal number read?
A: inactive: 1

Q: CN1CCN(C2=Nc3ccccc3Oc3ccc(Cl)cc32)CC1 was tested. Which maximal number did it give?
A: inactive: 1

Q: For C[C@H]1COc2c(C3(N)CC3)c(F)cc3c(=O)c(C(=O)O)cn1c23, which maximal number is on record?
A: inactive: 1

Q: With CCc1nn(CCCN2CCN(c3cccc(Cl)c3)CC2)c(=O)n1CCOc1ccccc1 as the compound, how does the maximal number read?
A: inactive: 1

Q: How did the maximal number turn out when CCCCCCCCCCOc1cc2c(O)c(C(=O)OCC)cnc2cc1OCC was run?
A: inactive: 1

Q: O=C(O[C@@H]1Cc2c(O)cc(O)cc2O[C@@H]1c1cc(O)c(=O)c2c(O)c(O)cc([C@H]3Oc4cc(O)cc(O)c4C[C@H]3OC(=O)c3cc(O)c(O)c(O)c3)c2c1)c1cc(O)c(O)c(O)c1 was tested. Which maximal number did it give?
A: inactive: 1

Q: O=C(Oc1cc(O)cc2c1C[C@@H](OC(=O)c1cc(O)c(O)c(O)c1)[C@@H](c1ccc(O)c(O)c1)O2)c1cc(O)c(O)c(O)c1 was tested. Which maximal number did it give?
A: inactive: 0

Q: CCCCCOC(=O)Nc1nc(=O)n([C@@H]2O[C@H](C)[C@@H](O)[C@H]2O)cc1F was tested. Which maximal number did it give?
A: inactive: 1

Q: For COc1ccc2c(c1)OCc1c-2oc2cc(OC)ccc12, which maximal number is on record?
A: inactive: 1

Q: Which maximal number does the source give for CCCCC(=O)Oc1ccccc1C(=O)O here?
A: active: 3

Q: For CC(C)C(=O)Nc1ccc([N+](=O)[O-])c(C(F)(F)F)c1, which maximal number is on record?
A: inactive: 1

Q: With CC(C)c1nc(CN(C)C(=O)N[C@H](C(=O)N[C@@H](Cc2ccccc2)C[C@H](O)[C@H](Cc2ccccc2)NC(=O)OCc2cncs2)C(C)C)cs1 as the compound, how does the maximal number read?
A: inactive: 1

Q: Which maximal number does the source give for Cc1oc(=O)oc1CN1CCN(c2cc3c(cc2F)c(=O)c(C(=O)O)c2n3C(C)S2)CC1 (stereo not given) here?
A: inactive: 1

Q: How did the maximal number turn out when CC1(C)C=Cc2cc3ccc(=O)oc3cc2O1 was run?
A: inactive: 0

Q: With C[C@]12CCC(=O)C=C1[C@@H]1C[C@@H]1[C@H]1[C@@H]3[C@@H]4C[C@@H]4[C@@]4(CCC(=O)O4)[C@@]3(C)CC[C@@H]12 as the compound, how does the maximal number read?
A: inactive: 1
